# At least one compound was matched to its structure with a doubt left.
# Tested on: Tg (cmlc2:GFP) zebrafishes
# Experiment: DPU protection against Dox-induced zebrafish cardiotoxicity (on-chip % fractional shortening)
# Type: in vivo
structure (smiles),measurement,setting,value
"O=C(Nc1ccccc1)Nc1ccccc1 [DPU, Diphenylurea]","% FS, statistical difference between control and treatment groups","50 μM Dox with 1.3 μM or higher DPU, T48, ANOVA with Tukey's test",no statistical difference
same,protective effect on Dox-induced cardiomyopathy (% FS),"zebrafish larvae, 50 μM Dox co-treated with 0-5 μM DPU, 48-hour time course, FIG. 18(a)",Dose-dependent protective effects

# From US10392592B2, “Microfluidic screening system” (University of Macau, priority 2016, dated 2019)
